# Values of other authors in US20250188545A1, “METHODS FOR PREDICTING RESPONSIVENESS OF LYMPHOMA TO DRUG AND METHODS FOR TREATING LYMPHOMA” (Celgene Corporation, priority 2022, published 2025).
# At least one structure is not confirmed: it was looked up by name or label, or the drawing left a doubt.
# System: high-risk ABC DLBCL population
# Settings: PHOENIX (ibrutinib), ROBUST (lenalidomide)
smiles,measurement,value
"C=CC(=O)N1CCC[C@@H](n2nc(-c3ccc(Oc4ccccc4)cc3)c3c(N)ncnc32)C1 [Ibrutinib, ibrutinib]",activity combined with R-CHOP compared to R-CHOP alone,did not demonstrate greater activities
